Data reported in PMC12706091.

Legend:
GST-ANXA7 = target: T1, GST-ANXA7 (UniProt Q6IRJ7); experiment: pull-down; purified GST fusion added to P14 rat cortical lysate in RIPA buffer, 4 °C, captured on glutathione resin, NP40 wash buffer; western blot; only the target purified
T1 sequence: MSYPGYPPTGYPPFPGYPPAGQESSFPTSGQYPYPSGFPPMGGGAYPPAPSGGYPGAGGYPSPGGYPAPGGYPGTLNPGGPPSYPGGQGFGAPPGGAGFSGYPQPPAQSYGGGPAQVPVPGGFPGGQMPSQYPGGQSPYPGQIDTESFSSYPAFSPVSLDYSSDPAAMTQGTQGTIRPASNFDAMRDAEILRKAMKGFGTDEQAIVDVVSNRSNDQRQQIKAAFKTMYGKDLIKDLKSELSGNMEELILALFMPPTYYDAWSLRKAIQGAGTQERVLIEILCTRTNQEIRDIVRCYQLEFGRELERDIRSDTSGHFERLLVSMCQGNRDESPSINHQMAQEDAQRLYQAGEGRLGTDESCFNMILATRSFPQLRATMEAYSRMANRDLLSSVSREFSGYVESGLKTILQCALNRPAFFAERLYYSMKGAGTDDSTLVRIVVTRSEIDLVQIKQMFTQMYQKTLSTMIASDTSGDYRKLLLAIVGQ

[1] = target: T2, HA-tagged TIA1 (expressed in rat cortical neurons) (UniProt P31483); experiment: co-IP; DIV11 rat cortical neurons electroporated with HA-TIA1, anti-HA magnetic beads, NP40 lysis buffer; control, shANXA7 knock-down or Myc-ANXA7 overexpression
T2 sequence: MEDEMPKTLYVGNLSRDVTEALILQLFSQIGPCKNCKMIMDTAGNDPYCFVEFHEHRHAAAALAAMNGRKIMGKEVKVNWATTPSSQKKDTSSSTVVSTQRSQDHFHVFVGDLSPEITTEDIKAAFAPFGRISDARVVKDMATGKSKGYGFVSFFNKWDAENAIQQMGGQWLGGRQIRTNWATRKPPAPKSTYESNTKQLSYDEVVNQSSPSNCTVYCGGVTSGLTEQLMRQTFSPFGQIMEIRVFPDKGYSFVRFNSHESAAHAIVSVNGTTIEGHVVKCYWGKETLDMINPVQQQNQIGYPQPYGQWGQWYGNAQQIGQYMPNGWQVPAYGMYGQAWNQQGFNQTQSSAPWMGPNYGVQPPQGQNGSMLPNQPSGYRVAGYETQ

[2] = target: T3, Flag-TIA1 (expressed in HEK293T) (UniProt P31483); experiment: co-IP; HEK293T co-transfected, NP40 lysis buffer, anti-Flag M2 or anti-HA beads, 3 h at 4 °C, wash with 300 mM NaCl; with or without overexpressed Myc-ANXA7
T3 sequence: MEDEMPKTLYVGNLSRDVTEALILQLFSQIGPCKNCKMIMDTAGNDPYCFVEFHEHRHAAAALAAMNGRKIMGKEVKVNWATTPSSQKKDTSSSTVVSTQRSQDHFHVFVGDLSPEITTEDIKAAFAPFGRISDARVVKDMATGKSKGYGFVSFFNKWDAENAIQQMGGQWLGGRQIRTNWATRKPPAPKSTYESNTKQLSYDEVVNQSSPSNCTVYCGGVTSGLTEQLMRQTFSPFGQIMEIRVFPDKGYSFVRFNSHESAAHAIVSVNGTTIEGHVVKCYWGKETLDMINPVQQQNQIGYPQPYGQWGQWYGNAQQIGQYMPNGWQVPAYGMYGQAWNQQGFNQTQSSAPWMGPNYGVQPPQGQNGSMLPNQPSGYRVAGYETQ

[3] = target: T4, Annexin A7 (ANXA7), endogenous (rat (endogenous in P14 rat brain and in cultured rat hippocampal neurons)) (UniProt Q6IRJ7); experiment: proximity ligation; endogenous proteins in fixed DIV12 rat hippocampal neurons, NaveniFlex Cell MR Atto647N kit, axonal PLA density; control, ANXA7 knock-down, rescue with A7-res
T4 sequence: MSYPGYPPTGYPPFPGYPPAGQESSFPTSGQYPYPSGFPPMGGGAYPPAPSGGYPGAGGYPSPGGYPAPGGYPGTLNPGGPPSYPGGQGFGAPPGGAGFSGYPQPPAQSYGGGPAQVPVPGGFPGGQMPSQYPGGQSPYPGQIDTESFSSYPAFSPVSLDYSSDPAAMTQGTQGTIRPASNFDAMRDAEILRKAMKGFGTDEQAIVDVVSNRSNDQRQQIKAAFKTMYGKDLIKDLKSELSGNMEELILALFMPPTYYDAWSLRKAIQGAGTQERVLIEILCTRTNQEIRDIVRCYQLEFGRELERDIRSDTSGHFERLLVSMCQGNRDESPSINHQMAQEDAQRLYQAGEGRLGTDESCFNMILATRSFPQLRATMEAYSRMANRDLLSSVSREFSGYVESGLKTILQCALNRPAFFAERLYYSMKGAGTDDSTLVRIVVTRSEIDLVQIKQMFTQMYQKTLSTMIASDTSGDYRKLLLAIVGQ

[4] = target: recombinant Flag-DIC1B (rFlag-DIC1B); experiment: pull-down; 2 μg Flag-DIC1B on anti-Flag magnetic beads, 2 μg TIA1 added, without Myc-ANXA7; NP40 lysis buffer with 0.5 M L-arginine, 4 °C; western blot; both purified
[5] = target: recombinant Flag-DIC1B (rFlag-DIC1B); experiment: pull-down; 2 μg Flag-DIC1B on anti-Flag magnetic beads, 2 μg each of Myc-ANXA7 and TIA1 added; NP40 lysis buffer with 0.5 M L-arginine, 4 °C; with or without 1 mM CaCl2; western blot; both purified
DIC1B-mRFP = experiment: FRET or BRET; FLIM-FRET in living rat hippocampal neurons (DIV9), donor EGFP-TIA1, acceptor DIC1B-mRFP, axons and soma; control, ANXA7 knock-down, knock-down with Myc-ANXA7-res
[6] = target: cytoplasmic dynein intermediate chain 1B (DIC1B), endogenous (rat (endogenous in P14 rat brain and in cultured rat neurons)); experiment: proximity ligation; endogenous proteins in fixed DIV12 rat hippocampal neurons, NaveniFlex Cell MR Atto647N kit, axonal PLA density; control, ANXA7 knock-down, rescue with A7-res

Molecule: cytoplasmic dynein intermediate chain 1B (DIC1B), endogenous
- binding (GST-ANXA7): binds
- binding [1]: binds

Molecule: HA-DIC1B (expressed in HEK293T)
- binding [2]: binds

Molecule: T-cell intracellular antigen 1 (TIA1), endogenous
- binding (GST-ANXA7): binds
- binding [3]: binds

B1: recombinant TIA1 (rTIA1) (protein, UniProt P31483 1-386)
chain: MEDEMPKTLYVGNLSRDVTEALILQLFSQIGPCKNCKMIMDTAGNDPYCFVEFHEHRHAAAALAAMNGRKIMGKEVKVNWATTPSSQKKDTSSSTVVSTQRSQDHFHVFVGDLSPEITTEDIKAAFAPFGRISDARVVKDMATGKSKGYGFVSFFNKWDAENAIQQMGGQWLGGRQIRTNWATRKPPAPKSTYESNTKQLSYDEVVNQSSPSNCTVYCGGVTSGLTEQLMRQTFSPFGQIMEIRVFPDKGYSFVRFNSHESAAHAIVSVNGTTIEGHVVKCYWGKETLDMINPVQQQNQIGYPQPYGQWGQWYGNAQQIGQYMPNGWQVPAYGMYGQAWNQQGFNQTQSSAPWMGPNYGVQPPQGQNGSMLPNQPSGYRVAGYETQ
- binding [4]: binds weakly

B2: recombinant Myc-ANXA7 (rMyc-ANXA7) (protein, UniProt Q6IRJ7 1-485)
chain: MSYPGYPPTGYPPFPGYPPAGQESSFPTSGQYPYPSGFPPMGGGAYPPAPSGGYPGAGGYPSPGGYPAPGGYPGTLNPGGPPSYPGGQGFGAPPGGAGFSGYPQPPAQSYGGGPAQVPVPGGFPGGQMPSQYPGGQSPYPGQIDTESFSSYPAFSPVSLDYSSDPAAMTQGTQGTIRPASNFDAMRDAEILRKAMKGFGTDEQAIVDVVSNRSNDQRQQIKAAFKTMYGKDLIKDLKSELSGNMEELILALFMPPTYYDAWSLRKAIQGAGTQERVLIEILCTRTNQEIRDIVRCYQLEFGRELERDIRSDTSGHFERLLVSMCQGNRDESPSINHQMAQEDAQRLYQAGEGRLGTDESCFNMILATRSFPQLRATMEAYSRMANRDLLSSVSREFSGYVESGLKTILQCALNRPAFFAERLYYSMKGAGTDDSTLVRIVVTRSEIDLVQIKQMFTQMYQKTLSTMIASDTSGDYRKLLLAIVGQ
- binding [5]: binds

B3: EGFP-TIA1 (protein, UniProt P31483 1-386)
chain: MEDEMPKTLYVGNLSRDVTEALILQLFSQIGPCKNCKMIMDTAGNDPYCFVEFHEHRHAAAALAAMNGRKIMGKEVKVNWATTPSSQKKDTSSSTVVSTQRSQDHFHVFVGDLSPEITTEDIKAAFAPFGRISDARVVKDMATGKSKGYGFVSFFNKWDAENAIQQMGGQWLGGRQIRTNWATRKPPAPKSTYESNTKQLSYDEVVNQSSPSNCTVYCGGVTSGLTEQLMRQTFSPFGQIMEIRVFPDKGYSFVRFNSHESAAHAIVSVNGTTIEGHVVKCYWGKETLDMINPVQQQNQIGYPQPYGQWGQWYGNAQQIGQYMPNGWQVPAYGMYGQAWNQQGFNQTQSSAPWMGPNYGVQPPQGQNGSMLPNQPSGYRVAGYETQ
- binding (DIC1B-mRFP): binds

B4: Annexin A7 (ANXA7), endogenous (protein, UniProt Q6IRJ7 1-485)
chain: MSYPGYPPTGYPPFPGYPPAGQESSFPTSGQYPYPSGFPPMGGGAYPPAPSGGYPGAGGYPSPGGYPAPGGYPGTLNPGGPPSYPGGQGFGAPPGGAGFSGYPQPPAQSYGGGPAQVPVPGGFPGGQMPSQYPGGQSPYPGQIDTESFSSYPAFSPVSLDYSSDPAAMTQGTQGTIRPASNFDAMRDAEILRKAMKGFGTDEQAIVDVVSNRSNDQRQQIKAAFKTMYGKDLIKDLKSELSGNMEELILALFMPPTYYDAWSLRKAIQGAGTQERVLIEILCTRTNQEIRDIVRCYQLEFGRELERDIRSDTSGHFERLLVSMCQGNRDESPSINHQMAQEDAQRLYQAGEGRLGTDESCFNMILATRSFPQLRATMEAYSRMANRDLLSSVSREFSGYVESGLKTILQCALNRPAFFAERLYYSMKGAGTDDSTLVRIVVTRSEIDLVQIKQMFTQMYQKTLSTMIASDTSGDYRKLLLAIVGQ
- binding [6]: binds

Results are given in words; binding and its absence hold for the method and conditions named. Binding can be weak; no strength is given. For part of these data: Tags and fused reporters may be left off the sequences shown. For part of these data: In cells and extracts the contact can be indirect.
